Assay results as given in paper PMC10625615.
These are yes or no findings as the source states them, for the method shown. Binding seen in cells or lysates may run through a third protein. Here binding means that the protein was enriched with, or labelled near, the bait; the list need not be complete.

By UniProt entry, the sequences of proteins in these tests, tags left out.
UniProt A2A935: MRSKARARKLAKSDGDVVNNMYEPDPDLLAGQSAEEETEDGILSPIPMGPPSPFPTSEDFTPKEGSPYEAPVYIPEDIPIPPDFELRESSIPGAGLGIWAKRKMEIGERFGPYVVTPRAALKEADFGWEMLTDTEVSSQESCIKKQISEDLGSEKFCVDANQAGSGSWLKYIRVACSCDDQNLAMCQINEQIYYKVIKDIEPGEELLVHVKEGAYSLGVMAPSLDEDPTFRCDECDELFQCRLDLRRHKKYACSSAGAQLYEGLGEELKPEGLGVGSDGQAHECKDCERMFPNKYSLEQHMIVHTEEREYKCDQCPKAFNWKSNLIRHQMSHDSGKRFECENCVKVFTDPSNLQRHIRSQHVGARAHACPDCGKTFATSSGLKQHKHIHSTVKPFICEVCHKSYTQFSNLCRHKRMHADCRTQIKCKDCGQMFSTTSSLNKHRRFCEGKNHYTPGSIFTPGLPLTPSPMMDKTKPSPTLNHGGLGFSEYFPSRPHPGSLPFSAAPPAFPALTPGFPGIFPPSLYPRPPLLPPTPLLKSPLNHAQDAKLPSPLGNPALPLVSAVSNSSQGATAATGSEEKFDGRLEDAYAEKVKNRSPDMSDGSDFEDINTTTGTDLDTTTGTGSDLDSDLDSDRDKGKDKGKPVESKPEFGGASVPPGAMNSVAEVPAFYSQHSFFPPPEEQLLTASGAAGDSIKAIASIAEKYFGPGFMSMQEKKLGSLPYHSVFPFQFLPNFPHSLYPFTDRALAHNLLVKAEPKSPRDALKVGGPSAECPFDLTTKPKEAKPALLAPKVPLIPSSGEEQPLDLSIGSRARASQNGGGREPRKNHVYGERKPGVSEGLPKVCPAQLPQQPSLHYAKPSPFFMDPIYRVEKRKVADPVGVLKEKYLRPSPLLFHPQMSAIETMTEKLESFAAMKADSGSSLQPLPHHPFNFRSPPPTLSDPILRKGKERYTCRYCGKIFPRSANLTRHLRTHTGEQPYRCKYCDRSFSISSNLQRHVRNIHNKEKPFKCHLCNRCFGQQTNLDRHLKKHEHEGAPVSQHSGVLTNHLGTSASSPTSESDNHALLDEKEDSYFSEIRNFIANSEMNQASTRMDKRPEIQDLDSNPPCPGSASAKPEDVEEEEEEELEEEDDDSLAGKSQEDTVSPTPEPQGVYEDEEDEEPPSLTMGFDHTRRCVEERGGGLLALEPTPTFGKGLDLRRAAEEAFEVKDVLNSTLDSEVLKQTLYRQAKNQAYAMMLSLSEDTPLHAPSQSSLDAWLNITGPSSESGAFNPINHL
UniProt P56546: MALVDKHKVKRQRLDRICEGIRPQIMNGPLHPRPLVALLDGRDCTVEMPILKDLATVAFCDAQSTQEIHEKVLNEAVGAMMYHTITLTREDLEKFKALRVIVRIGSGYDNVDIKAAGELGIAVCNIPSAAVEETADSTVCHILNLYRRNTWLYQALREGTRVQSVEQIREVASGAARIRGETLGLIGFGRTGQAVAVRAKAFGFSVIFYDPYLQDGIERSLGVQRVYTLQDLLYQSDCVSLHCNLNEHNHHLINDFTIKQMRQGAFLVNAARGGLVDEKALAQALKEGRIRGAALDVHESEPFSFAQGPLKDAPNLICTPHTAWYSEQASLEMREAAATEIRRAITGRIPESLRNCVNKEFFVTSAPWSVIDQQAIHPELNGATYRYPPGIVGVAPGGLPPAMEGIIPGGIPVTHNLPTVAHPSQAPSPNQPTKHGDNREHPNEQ
UniProt Q9EPK5: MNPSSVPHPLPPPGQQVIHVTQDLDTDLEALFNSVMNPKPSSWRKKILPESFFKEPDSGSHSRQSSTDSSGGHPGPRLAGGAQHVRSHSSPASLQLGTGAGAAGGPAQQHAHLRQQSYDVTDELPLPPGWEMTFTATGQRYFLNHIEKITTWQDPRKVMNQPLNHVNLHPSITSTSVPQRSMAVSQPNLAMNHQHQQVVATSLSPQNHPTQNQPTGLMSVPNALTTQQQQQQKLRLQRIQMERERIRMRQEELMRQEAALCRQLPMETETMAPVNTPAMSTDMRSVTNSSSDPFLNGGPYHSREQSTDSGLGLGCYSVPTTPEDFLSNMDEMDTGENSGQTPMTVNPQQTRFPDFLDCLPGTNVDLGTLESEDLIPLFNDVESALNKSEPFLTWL
UniProt P46938: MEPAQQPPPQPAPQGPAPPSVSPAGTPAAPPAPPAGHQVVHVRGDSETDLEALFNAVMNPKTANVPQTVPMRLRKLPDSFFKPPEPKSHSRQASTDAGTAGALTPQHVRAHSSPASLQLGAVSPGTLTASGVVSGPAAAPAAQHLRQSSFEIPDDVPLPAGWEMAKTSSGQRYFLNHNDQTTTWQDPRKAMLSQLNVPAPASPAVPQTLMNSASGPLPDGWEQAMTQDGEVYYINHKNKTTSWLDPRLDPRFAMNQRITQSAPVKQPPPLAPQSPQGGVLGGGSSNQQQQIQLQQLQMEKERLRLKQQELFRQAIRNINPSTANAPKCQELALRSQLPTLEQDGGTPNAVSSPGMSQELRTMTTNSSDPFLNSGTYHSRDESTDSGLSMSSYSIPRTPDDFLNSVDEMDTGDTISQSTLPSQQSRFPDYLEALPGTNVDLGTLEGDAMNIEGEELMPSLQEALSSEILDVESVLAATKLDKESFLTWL

B1: ZFP516 (protein, UniProt Q7TSH3 1-1157)
chain: MDRSREAEMELRRGPSPPRAGRSHEVDGDKAACHSCCICGKSFPFQSSLSQHMRKHTGEKPYKCPYCDHRASQKGNLKIHIRSHRTGTLIQGHEPEAGEAQLGEMRVSEGLDGCASPTKSTSACNRVLNGAVPMDGSKILLRSSRKEVEGAASAQEDTEATVPCSFCKSRFERKKDLELHVHQAHKPFKCRLCSYVTLREESLLSHIERDHITAQVPNGSEACVENGKPELSPGEFPCEVCGQAFSQTWFLKAHMKKHRGSFDHGCHICGRRFKEPWFLKNHMKAHGPKAGSKNRPKSELDPIATINNVVQEEVIVAGLSLYEVCTKCGNLFTNLDSLNAHNAIHRKVEASRIRAPAEEGDSEDPLDTKQFFLQCLNLTPYVAGDVSPGGQAGRRVAELDPVNSYQAWQLATRGKVAEPAEYLKYGTWDEALAGDVAFDKDKREYILVSQEKRKREQDAPATQAPPRKRASVPGDPMLSGHLDPRPTSRPNRRASATTGQGKSSECFECGKIFRTYHQMVLHSRVHRRARRDRDPEGDRAARARCGSLSEGDSASQPSSPGSACAIADSPGLAEEVVDDSGEEAVPEPASGGQPRHCCSSGEVTPTALSNGDQNHKLGNNLPEKDISEPKVGSAMPSVSILENSSRETTKGPEQHRYSLDLKMPAFHPKQEVPSTTDRVDFPASMEITSLQHTLDSQAGHSKEKLSDLHKEHCGVGKRASAPDLVPLDLSMRSSRDEPSGKEACSLQAALVIHPCPYCTHKTYYPEVLWMHKRIWHRVSCSSVAPPWTQPSGHKSIRSNLVFLTRSGRTGPPPALGGKECQPLLLSRFARTQVPGGAPGSKGSSSPLGVTTKAASMPKNKESHSGGPCALWASGPDGYRQTRAGHGQEPPSAAVQGPLAKPKQEGSSRLAPSPGSGSLSRSTTPTPSVITRVGAQPSANSKPVEKLGGPAVGTGFTPPNKHSAPDSLKAKFSPQPQGQPPLKGEGGSPLPPREPSVKAAQELRTLATCAAGSRGEAALQAPPGAPPTLNSAKQEPAAEGQEKRLDILSIFKTYIPKDFATLYQGWGVSSPGPEHRGTSLTGTPRTQAHQGDFVCVECGKSFHQPSQLRAHLRAHTVVFECDGPRDSEVHTASTDAPKQGRDHTTPGTVPAGPLRKGI

Each molecule was assayed against PRDM16-FLAG (UniProt A2A935) (assay: affinity purification with mass spectrometry; PRDM16-FLAG expressed by lentivirus in beige adipocytes differentiated from scWAT preadipocytes (day 7); lysate precipitated with anti-FLAG agarose beads, SDS-PAGE, gel bands digested with trypsin, LC-MS/MS).

Row | binding | Molecule
1 | binds | CtBP1 (from UniProt O88712 1-441)
2 | binds | CtBP2 (from UniProt P56546 1-445)
3 | binds | TAZ (endogenous, mouse) (from UniProt Q9EPK5 1-395)
4 | binds | YAP (endogenous, mouse) (from UniProt P46938 1-488)
5 | binds | B1
